This passage reports binding results from article doi:10.1101/2024.07.03.601736.

These are yes or no findings as the source states them, for the method shown. Binding can be weak; no strength is given. Where a sequence is shown, tags or fusion partners need not be part of it.

This test deals with T1, Flag-tagged ADGRL1 (ADGRL1^Flag-HA) (UniProt O88917).
T1 sequence: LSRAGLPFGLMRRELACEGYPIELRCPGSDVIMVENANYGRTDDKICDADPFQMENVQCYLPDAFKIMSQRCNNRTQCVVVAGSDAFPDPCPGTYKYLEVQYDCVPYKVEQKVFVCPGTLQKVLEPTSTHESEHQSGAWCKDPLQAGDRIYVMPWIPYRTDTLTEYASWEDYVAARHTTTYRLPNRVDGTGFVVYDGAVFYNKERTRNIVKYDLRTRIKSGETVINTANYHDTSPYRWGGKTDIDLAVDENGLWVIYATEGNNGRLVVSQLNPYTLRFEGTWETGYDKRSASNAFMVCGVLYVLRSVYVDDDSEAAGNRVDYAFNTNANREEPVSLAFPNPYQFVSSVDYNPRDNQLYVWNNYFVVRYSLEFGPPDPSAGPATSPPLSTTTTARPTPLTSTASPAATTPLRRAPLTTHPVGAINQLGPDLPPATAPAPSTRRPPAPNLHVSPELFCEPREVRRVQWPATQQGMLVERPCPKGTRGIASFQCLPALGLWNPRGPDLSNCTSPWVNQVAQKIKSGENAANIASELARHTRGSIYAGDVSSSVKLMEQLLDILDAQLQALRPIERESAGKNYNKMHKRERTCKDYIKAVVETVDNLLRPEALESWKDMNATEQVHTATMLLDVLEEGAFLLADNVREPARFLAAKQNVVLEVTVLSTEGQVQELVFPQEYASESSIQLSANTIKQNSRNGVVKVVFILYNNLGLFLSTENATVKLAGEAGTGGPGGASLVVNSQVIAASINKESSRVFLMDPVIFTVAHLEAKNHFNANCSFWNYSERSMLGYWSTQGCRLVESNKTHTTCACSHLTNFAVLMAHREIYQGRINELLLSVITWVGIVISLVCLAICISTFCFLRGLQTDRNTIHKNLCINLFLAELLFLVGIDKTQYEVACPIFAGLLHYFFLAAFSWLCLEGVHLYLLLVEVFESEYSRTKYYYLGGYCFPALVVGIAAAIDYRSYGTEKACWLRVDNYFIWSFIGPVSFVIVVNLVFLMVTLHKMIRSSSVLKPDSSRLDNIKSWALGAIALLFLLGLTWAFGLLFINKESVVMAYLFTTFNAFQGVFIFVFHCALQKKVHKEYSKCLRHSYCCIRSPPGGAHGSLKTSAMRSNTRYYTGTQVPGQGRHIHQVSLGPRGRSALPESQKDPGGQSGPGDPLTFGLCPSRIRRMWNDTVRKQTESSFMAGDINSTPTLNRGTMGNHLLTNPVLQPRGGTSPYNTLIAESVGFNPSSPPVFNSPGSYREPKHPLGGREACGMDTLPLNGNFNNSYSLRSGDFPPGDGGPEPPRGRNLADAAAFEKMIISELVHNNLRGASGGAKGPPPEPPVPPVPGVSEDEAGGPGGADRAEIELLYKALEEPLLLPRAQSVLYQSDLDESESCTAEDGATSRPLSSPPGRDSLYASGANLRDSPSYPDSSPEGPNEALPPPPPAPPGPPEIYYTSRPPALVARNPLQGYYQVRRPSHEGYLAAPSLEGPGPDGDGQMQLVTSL
The test can be described thus: cell aggregation assay.

Regarding NRX1β(-SS4) (ligand), the binding entry is on record as “binds”.
